This series in a line: 4 h corrosion test at 90° C. in 20% hydrochloric acid. The following applies: P110 carbon steel, 1000 ppm inhibitor. The method, then: The corrosion inhibition performance of corrosion inhibitors in the embodiments 1 to 4 is determined by a 4 h corrosion test at 90° C. using 20% hydrochloric acid as a corrosive medium and P110 carbon steels. The amount of corrosion inhibitors is 1000 ppm.

Take `OC(C[N+]1(Cc2ccc3ccccc3c2)CCOCC1)C[N+](Cc1ccccc1)(Cc1ccccc1)Cc1ccc2ccccc2c1` (stereo not drawn) [Embodiment 1]: the Surface morphology result was “Smooth and flat”.

Consider `OC(C[N+](Cc1ccccc1)(Cc1ccccc1)Cc1ccccc1)C[N+]1(Cc2ccccc2)C=Cc2ccccc21` (stereo not drawn) [Embodiment 2], for which the Surface morphology entry is “Smooth and flat”.

For `CCCCCC[N+](Cc1ccccc1)(Cc1ccccc1)CC(O)C[N+](CCCCCC)(Cc1ccccc1)CC(O)C[N+](CCCCCC)(Cc1ccccc1)Cc1ccccc1` (stereo not drawn) [Embodiment 3], the Surface morphology result is “Smooth and flat”.

Values taken from patent US10889748B2, “Process for preparing dibenzylamine quaternary ammonium salt high-temperature resistant corrosion inhibitor and applications thereof” (Southwest Petroleum University, priority 2018, dated 2021).
